{"source": "PubChem BioAssay AID1224830 (NIAID, 2016)", "assay": "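Genes whose knock-down alters the TNF-alpha reporter response to LPS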 (primary screen)", "cell system": "human THP-1 monocytic leukaemia cells, TNF dual-luciferase reporter clone, PMA-differentiated to macrophage-like cells", "knock-down reagent": "siRNA pool against human genes, 50 nM", "timing": "LPS for 4 h, given about 3 days after siRNA transfection", "treatment": "bacterial LPS (TLR4 ligand), 10 ng/ml", "read-out": "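Ratio of firefly to renilla light, scaled to the plate median and expressed as a robust z-score per replicate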", "reading the numbers": "TNF reporter robust z-score: higher = stronger TNF reporter response to LPS", "rule for the call": "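a well is active when its z-score exceeds 2.8 or falls below -1.5; control wells carry no call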", "note": "Shown is an unselected part of about 18,000 reagents tested. Over the whole deposit, about 2,900 (16%) are marked active. 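Calls are made per well; low scores hint the gene aids the LPS response, high scores that it dampens it.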 Repeated entries: four replicate wells of each siRNA pool."}
{"Gene": "DCX (doublecortin)", "PubChem SID": "SID315448264", "TNF reporter robust z-score": -0.07, "activity call": "inactive"}
{"Gene": "DCX (doublecortin)", "PubChem SID": "SID315448264", "TNF reporter robust z-score": -0.24, "activity call": "inactive"}
{"Gene": "DCX (doublecortin)", "PubChem SID": "SID315448264", "TNF reporter robust z-score": -0.32, "activity call": "inactive"}
{"Gene": "DCX (doublecortin)", "PubChem SID": "SID315448264", "TNF reporter robust z-score": 3.99, "activity call": "active"}
{"Gene": "OR5M1 (olfactory receptor family 5 subfamily M member 1)", "PubChem SID": "SID315464621", "TNF reporter robust z-score": 0.12, "activity call": "inactive"}
{"Gene": "OR5M1 (olfactory receptor family 5 subfamily M member 1)", "PubChem SID": "SID315464621", "TNF reporter robust z-score": 0.84, "activity call": "inactive"}
{"Gene": "OR5M1 (olfactory receptor family 5 subfamily M member 1)", "PubChem SID": "SID315464621", "TNF reporter robust z-score": 0.91, "activity call": "inactive"}
{"Gene": "OR5M1 (olfactory receptor family 5 subfamily M member 1)", "PubChem SID": "SID315464621", "TNF reporter robust z-score": 1.4, "activity call": "inactive"}
{"Gene": "RAD9A (RAD9 checkpoint clamp component A)", "PubChem SID": "SID315451025", "TNF reporter robust z-score": 1.19, "activity call": "inactive"}
{"Gene": "RAD9A (RAD9 checkpoint clamp component A)", "PubChem SID": "SID315451025", "TNF reporter robust z-score": 1.51, "activity call": "inactive"}
{"Gene": "RAD9A (RAD9 checkpoint clamp component A)", "PubChem SID": "SID315451025", "TNF reporter robust z-score": 0.87, "activity call": "inactive"}
{"Gene": "RAD9A (RAD9 checkpoint clamp component A)", "PubChem SID": "SID315451025", "TNF reporter robust z-score": 1.24, "activity call": "inactive"}
{"Gene": "DNM3 (dynamin 3)", "PubChem SID": "SID315455641", "TNF reporter robust z-score": -1.1, "activity call": "inactive"}
{"Gene": "DNM3 (dynamin 3)", "PubChem SID": "SID315455641", "TNF reporter robust z-score": 0.29, "activity call": "inactive"}
{"Gene": "DNM3 (dynamin 3)", "PubChem SID": "SID315455641", "TNF reporter robust z-score": -0.32, "activity call": "inactive"}
{"Gene": "DNM3 (dynamin 3)", "PubChem SID": "SID315455641", "TNF reporter robust z-score": 0.47, "activity call": "inactive"}
{"Gene": "PPDPF", "PubChem SID": "SID315459226", "TNF reporter robust z-score": -0.53, "activity call": "inactive"}
{"Gene": "PPDPF", "PubChem SID": "SID315459226", "TNF reporter robust z-score": 1.84, "activity call": "inactive"}
{"Gene": "PPDPF", "PubChem SID": "SID315459226", "TNF reporter robust z-score": 0.14, "activity call": "inactive"}
{"Gene": "PPDPF", "PubChem SID": "SID315459226", "TNF reporter robust z-score": 3.46, "activity call": "active"}

Next part, starting with the last 3 of the part before.
{"Gene": "PPDPF", "PubChem SID": "SID315459226", "TNF reporter robust z-score": 1.84, "activity call": "inactive"}
{"Gene": "PPDPF", "PubChem SID": "SID315459226", "TNF reporter robust z-score": 0.14, "activity call": "inactive"}
{"Gene": "PPDPF", "PubChem SID": "SID315459226", "TNF reporter robust z-score": 3.46, "activity call": "active"}
{"Gene": "TAS2R31 (taste 2 receptor member 31)", "PubChem SID": "SID315463582", "TNF reporter robust z-score": 0.26, "activity call": "inactive"}
{"Gene": "TAS2R31 (taste 2 receptor member 31)", "PubChem SID": "SID315463582", "TNF reporter robust z-score": 1.38, "activity call": "inactive"}
{"Gene": "TAS2R31 (taste 2 receptor member 31)", "PubChem SID": "SID315463582", "TNF reporter robust z-score": -0.56, "activity call": "inactive"}
{"Gene": "TAS2R31 (taste 2 receptor member 31)", "PubChem SID": "SID315463582", "TNF reporter robust z-score": 1.16, "activity call": "inactive"}
{"Gene": "ARL5B (ARF like GTPase 5B)", "PubChem SID": "SID315463269", "TNF reporter robust z-score": -1.19, "activity call": "inactive"}
{"Gene": "ARL5B (ARF like GTPase 5B)", "PubChem SID": "SID315463269", "TNF reporter robust z-score": -1.84, "activity call": "active"}
{"Gene": "ARL5B (ARF like GTPase 5B)", "PubChem SID": "SID315463269", "TNF reporter robust z-score": -2, "activity call": "active"}
{"Gene": "ARL5B (ARF like GTPase 5B)", "PubChem SID": "SID315463269", "TNF reporter robust z-score": -0.66, "activity call": "inactive"}
{"Gene": "OR8D4 (olfactory receptor family 8 subfamily D member 4)", "PubChem SID": "SID315463992", "TNF reporter robust z-score": -1.01, "activity call": "inactive"}
{"Gene": "OR8D4 (olfactory receptor family 8 subfamily D member 4)", "PubChem SID": "SID315463992", "TNF reporter robust z-score": -0.34, "activity call": "inactive"}
{"Gene": "OR8D4 (olfactory receptor family 8 subfamily D member 4)", "PubChem SID": "SID315463992", "TNF reporter robust z-score": -1.38, "activity call": "inactive"}
{"Gene": "OR8D4 (olfactory receptor family 8 subfamily D member 4)", "PubChem SID": "SID315463992", "TNF reporter robust z-score": -0.96, "activity call": "inactive"}
{"Gene": "MRPS18B (mitochondrial ribosomal protein S18B)", "PubChem SID": "SID315456089", "TNF reporter robust z-score": -0.92, "activity call": "inactive"}
{"Gene": "MRPS18B (mitochondrial ribosomal protein S18B)", "PubChem SID": "SID315456089", "TNF reporter robust z-score": -0.89, "activity call": "inactive"}
{"Gene": "MRPS18B (mitochondrial ribosomal protein S18B)", "PubChem SID": "SID315456089", "TNF reporter robust z-score": -0.48, "activity call": "inactive"}
{"Gene": "MRPS18B (mitochondrial ribosomal protein S18B)", "PubChem SID": "SID315456089", "TNF reporter robust z-score": -0.06, "activity call": "inactive"}
{"Gene": "KCNQ1 (potassium voltage-gated channel subfamily Q member 1)", "PubChem SID": "SID315449637", "TNF reporter robust z-score": -0.6, "activity call": "inactive"}
{"Gene": "KCNQ1 (potassium voltage-gated channel subfamily Q member 1)", "PubChem SID": "SID315449637", "TNF reporter robust z-score": -0.84, "activity call": "inactive"}
{"Gene": "KCNQ1 (potassium voltage-gated channel subfamily Q member 1)", "PubChem SID": "SID315449637", "TNF reporter robust z-score": -0.77, "activity call": "inactive"}
{"Gene": "KCNQ1 (potassium voltage-gated channel subfamily Q member 1)", "PubChem SID": "SID315449637", "TNF reporter robust z-score": 0.46, "activity call": "inactive"}
{"Gene": "C1QB (complement C1q B chain)", "PubChem SID": "SID315447607", "TNF reporter robust z-score": 0.29, "activity call": "inactive"}
{"Gene": "C1QB (complement C1q B chain)", "PubChem SID": "SID315447607", "TNF reporter robust z-score": -0.49, "activity call": "inactive"}
{"Gene": "C1QB (complement C1q B chain)", "PubChem SID": "SID315447607", "TNF reporter robust z-score": -0.24, "activity call": "inactive"}
{"Gene": "C1QB (complement C1q B chain)", "PubChem SID": "SID315447607", "TNF reporter robust z-score": 0.28, "activity call": "inactive"}
{"Gene": "TMEM50B (transmembrane protein 50B)", "PubChem SID": "SID315447640", "TNF reporter robust z-score": 1.31, "activity call": "inactive"}
{"Gene": "TMEM50B (transmembrane protein 50B)", "PubChem SID": "SID315447640", "TNF reporter robust z-score": 1.85, "activity call": "inactive"}
{"Gene": "TMEM50B (transmembrane protein 50B)", "PubChem SID": "SID315447640", "TNF reporter robust z-score": 1.46, "activity call": "inactive"}
{"Gene": "TMEM50B (transmembrane protein 50B)", "PubChem SID": "SID315447640", "TNF reporter robust z-score": 2, "activity call": "inactive"}
